Source: PubChem BioAssay AID1259308 (NCATS, 2017)

Aim: 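Knock-downs that increase output of a recombinant reporter protein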 (primary screen)
Cells: human HEK293 embryonic kidney cells stably expressing firefly luciferase (HEK-CMV-Luc2-Hygro)
Knock-down reagent: single siRNA against human genes, 0.8 pmol siRNA per well
Timing: 72 h
Measured: 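Reporter luminescence and viable-cell signal on separate replicate plates, given as percent of non-targeting control and median/MAD z-scores, plus per-cell luciferase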
Direction: total luciferase, z-score: higher = more reporter protein produced
Rule for the call: 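Active when the median/MAD z-score for overall luciferase is greater than 3; a gene was taken forward for validation with new siRNAs if at least two of its three siRNAs passed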
Meaning of the calls: active = raised luciferase; inactive = no rise
In all, the deposit lists about 59,000 reagents; this is a random part of them. In the full data, about 1,510 (2.6%) are marked active. 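Calls use total luciferase alone and ignore viability, so some active siRNAs may act by altering cell number.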 Unmarked entries are inactive. Reagents against one gene are numbered here. Further read-outs or replicates are left out here. Reagent sequences are not shown.

For TBX10 #1 the deposit lists total luciferase, z-score 0.212.
Silencing of TBX10 #2 resulted in: total luciferase, z-score 1.3.
Against TBX10 #3, the values are total luciferase, z-score 0.832.
With knock-down of ABHD3 #1, the record shows total luciferase, z-score 2.12.
After knock-down of ABHD3 #2 the results were total luciferase, z-score -0.847.
For ABHD3 #3, the entry reads total luciferase, z-score -1.16.
KATNB1 #1 gave total luciferase, z-score -1.13.
After knock-down of KATNB1 #2 the results were total luciferase, z-score 2.42.
KATNB1 #3 showed total luciferase, z-score 1.36.
With knock-down of CUL4B #1 the results were total luciferase, z-score -1.29.
Against CUL4B #2, the entry reads total luciferase, z-score 0.215.
CUL4B #3 showed total luciferase, z-score 0.583.
Knock-down of AKAP12 #1 came out at: total luciferase, z-score 0.195.
With knock-down of AKAP12 #2, the screen gave total luciferase, z-score 0.0987.
After knock-down of AKAP12 #3, the record shows total luciferase, z-score 0.217.
SAMD4A-AS1 #1 showed total luciferase, z-score 2.47.
SAMD4A-AS1 #2 showed total luciferase, z-score -0.84.
Knock-down of SAMD4A-AS1 #3 came out at: total luciferase, z-score 0.202.
After knock-down of ZBTB47 #1, the screen gave total luciferase, z-score -0.663.
Silencing of ZBTB47 #2 resulted in: total luciferase, z-score 0.455.
With knock-down of ZBTB47 #3, the record shows total luciferase, z-score -2.55.

2 entries already listed, arranged by “total luciferase, z-score”, low to high.
CUL4B #2 | total luciferase, z-score = 0.215
CUL4B #3 | total luciferase, z-score = 0.583
